Laboratory results taken from paper PMC3237483.
Results are given in words; binding and its absence hold for the method and conditions named. In cells and extracts the contact can be indirect. Some binding calls cover weakened binding; strength is not graded here. Where a sequence is shown, tags or fusion partners need not be part of it.

Chains of the proteins cited; added tags and fusions are not shown.
UniProt Q13153: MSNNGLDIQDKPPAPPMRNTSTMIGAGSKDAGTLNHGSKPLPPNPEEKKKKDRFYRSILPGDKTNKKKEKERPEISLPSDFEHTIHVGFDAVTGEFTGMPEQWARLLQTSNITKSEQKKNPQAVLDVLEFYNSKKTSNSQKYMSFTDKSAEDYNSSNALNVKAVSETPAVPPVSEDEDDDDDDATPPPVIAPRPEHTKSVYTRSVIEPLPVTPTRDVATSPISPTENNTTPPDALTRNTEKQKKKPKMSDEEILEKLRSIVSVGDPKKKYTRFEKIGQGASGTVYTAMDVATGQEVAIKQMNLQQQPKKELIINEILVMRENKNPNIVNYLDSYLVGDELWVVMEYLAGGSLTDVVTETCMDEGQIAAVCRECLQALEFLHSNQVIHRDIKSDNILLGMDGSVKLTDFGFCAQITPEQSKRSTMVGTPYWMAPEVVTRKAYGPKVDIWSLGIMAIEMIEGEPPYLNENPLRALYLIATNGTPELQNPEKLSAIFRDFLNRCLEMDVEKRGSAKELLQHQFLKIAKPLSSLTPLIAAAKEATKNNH

Target: T1, 3×Flag-Nephrin (human) (human) (UniProt O60500)
T1 sequence: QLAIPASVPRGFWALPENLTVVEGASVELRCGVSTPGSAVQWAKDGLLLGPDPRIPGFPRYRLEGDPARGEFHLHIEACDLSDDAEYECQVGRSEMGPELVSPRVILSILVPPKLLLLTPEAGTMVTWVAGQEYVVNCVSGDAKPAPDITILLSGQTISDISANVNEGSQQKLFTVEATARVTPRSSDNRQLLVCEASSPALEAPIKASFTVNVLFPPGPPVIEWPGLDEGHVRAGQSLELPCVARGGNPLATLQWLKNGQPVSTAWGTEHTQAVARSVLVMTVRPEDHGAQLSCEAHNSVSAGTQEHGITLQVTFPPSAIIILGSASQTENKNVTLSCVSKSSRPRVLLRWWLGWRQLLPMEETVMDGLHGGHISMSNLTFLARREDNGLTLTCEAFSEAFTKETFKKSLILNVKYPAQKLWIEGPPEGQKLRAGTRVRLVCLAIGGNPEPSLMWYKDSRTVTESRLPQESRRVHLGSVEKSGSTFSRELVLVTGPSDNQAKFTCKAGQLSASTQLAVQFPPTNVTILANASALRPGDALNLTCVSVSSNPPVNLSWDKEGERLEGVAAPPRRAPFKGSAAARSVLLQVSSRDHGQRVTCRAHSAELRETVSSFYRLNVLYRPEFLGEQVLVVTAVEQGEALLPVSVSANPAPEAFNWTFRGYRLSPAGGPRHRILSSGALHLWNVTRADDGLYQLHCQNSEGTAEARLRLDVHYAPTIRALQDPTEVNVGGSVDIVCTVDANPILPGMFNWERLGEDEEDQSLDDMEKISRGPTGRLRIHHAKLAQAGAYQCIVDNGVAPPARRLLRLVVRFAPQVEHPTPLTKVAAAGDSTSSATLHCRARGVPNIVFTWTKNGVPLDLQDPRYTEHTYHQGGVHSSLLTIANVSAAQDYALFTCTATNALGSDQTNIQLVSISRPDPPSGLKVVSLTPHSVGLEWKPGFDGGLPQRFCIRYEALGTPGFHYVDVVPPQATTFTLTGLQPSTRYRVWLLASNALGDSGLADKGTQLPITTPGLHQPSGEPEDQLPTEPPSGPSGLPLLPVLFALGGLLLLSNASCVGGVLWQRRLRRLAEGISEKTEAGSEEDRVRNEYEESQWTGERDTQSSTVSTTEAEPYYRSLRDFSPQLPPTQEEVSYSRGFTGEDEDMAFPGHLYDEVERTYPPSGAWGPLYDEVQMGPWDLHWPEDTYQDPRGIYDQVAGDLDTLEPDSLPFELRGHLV
Experiment: co-IP; human podocytes expressing 3×Flag-hNephrin and wild type Pak1, treated with 50A9 anti-Nephrin mab followed by anti-mouse IgG (mouse IgG as control), lysed in RIPA buffer, immunoprecipitated with Flag antibody or pre-immune sera

- binding: binds
Substance: Pak1, wild type (from UniProt Q13153 1-545) (enzyme)
